Measured values as given in paper PMC4307302.
Results are given in words; binding and its absence hold for the method and conditions named. In cells and extracts the contact can be indirect. Some results given as binding are weak or reduced against the parent protein; the word gives no strength.

Sequences of proteins named here, by UniProt entry; tags and fusion partners are left off.
UniProt P37238: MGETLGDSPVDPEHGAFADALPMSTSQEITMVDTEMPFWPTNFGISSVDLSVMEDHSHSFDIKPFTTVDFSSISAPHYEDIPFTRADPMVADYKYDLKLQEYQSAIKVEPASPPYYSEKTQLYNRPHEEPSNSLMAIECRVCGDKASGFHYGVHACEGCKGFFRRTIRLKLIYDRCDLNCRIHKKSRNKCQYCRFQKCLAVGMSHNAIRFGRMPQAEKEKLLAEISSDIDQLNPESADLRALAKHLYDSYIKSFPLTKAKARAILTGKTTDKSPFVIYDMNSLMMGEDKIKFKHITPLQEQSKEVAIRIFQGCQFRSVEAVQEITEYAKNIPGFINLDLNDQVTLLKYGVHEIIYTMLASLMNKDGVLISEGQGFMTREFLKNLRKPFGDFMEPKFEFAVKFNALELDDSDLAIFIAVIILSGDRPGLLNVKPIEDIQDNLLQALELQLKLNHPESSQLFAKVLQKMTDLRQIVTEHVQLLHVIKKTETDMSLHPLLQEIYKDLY

Biological target: T1, Peroxisome proliferator-activated receptor gamma coactivator 1 (mouse (endogenous in C2C12)) (UniProt O70343)
T1 sequence: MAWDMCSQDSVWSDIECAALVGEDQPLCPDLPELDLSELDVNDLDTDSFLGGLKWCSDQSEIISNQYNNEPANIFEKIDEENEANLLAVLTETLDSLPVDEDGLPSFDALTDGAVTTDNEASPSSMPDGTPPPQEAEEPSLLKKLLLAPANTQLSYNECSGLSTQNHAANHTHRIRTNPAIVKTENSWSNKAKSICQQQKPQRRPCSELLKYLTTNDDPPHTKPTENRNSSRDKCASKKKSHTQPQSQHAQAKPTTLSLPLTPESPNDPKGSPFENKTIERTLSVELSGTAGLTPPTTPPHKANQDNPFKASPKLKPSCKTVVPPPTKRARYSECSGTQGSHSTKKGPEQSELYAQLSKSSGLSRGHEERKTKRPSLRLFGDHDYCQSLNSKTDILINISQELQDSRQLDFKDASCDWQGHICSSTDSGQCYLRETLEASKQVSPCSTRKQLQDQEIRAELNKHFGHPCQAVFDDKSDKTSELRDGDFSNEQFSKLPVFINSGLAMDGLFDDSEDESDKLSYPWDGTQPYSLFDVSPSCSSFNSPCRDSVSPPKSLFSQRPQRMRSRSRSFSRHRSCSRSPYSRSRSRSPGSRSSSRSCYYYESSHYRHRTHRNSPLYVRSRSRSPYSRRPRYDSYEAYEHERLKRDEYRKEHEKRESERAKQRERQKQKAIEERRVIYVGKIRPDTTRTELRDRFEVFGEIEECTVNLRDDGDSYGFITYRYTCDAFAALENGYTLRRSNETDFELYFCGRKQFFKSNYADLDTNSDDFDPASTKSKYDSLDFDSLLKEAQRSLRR
Assay: co-IP; lysates of differentiated C2C12 cells incubated overnight with PGC-1α antibody (Abcam) and protein A/G plus agarose beads; eluates blotted for PPARγ, nitrotyrosine and PGC-1α; cells treated 24 h with SNP (30 μM), Hcy (250 μM) and Hcy thiolactone (1 mM) as indicated

binding: binds
Substance: Peroxisome proliferator-activated receptor gamma (from UniProt P37238 1-505)
